Experimental data as given in the supplement of paper PMC8166895.
Structures can show the parent of a compound that is named as a salt. The list shows a part of the results. Most values lie at the level of the controls, where differences are scatter.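 Melting temperature was read by differential scanning fluorimetry in a single-replicate pilot screen of a library of approved drugs and clinical or known-target compounds. Compounds raising the melting point by at least 2 °C were the top stabilizing hits, and negative shifts mean destabilization.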

System: SARS-CoV-2 main protease (Mpro, nsp5)
Experiment: thermal shift ΔTm of Mpro relative to plate average Tm; higher = stronger thermal stabilization of Mpro (binding)
Conditions: 10 µM; protein concentration 1 µM

Compound	thermal shift ΔTm of Mpro [°C]
Cn1c(N2CCCCS2(=O)=O)nc(C(=O)NCc2ccc(F)cc2)c(O)c1=O	0.552
CN1CCN(c2ccc(C(=O)Nc3cc(-c4cccc(NS(=O)(=O)c5ccccc5)c4)[nH]n3)cc2)CC1	0.302
O=C(c1ccccc1)c1ccc2nc(NC(=O)c3csc(C4CCN(c5ncnc6ccsc56)CC4)n3)[nH]c2c1	-0.119
CCCCCCCC(=O)c1c(O)cc(O)cc1CC(=O)OCC [Cytosporone B]	-0.0475
CCS(=O)(=O)N1CCN(c2ccc(Nc3ncc(C(N)=O)c(NC4CC4)n3)cc2)CC1	-0.403
CCS(=O)(=O)N1CCN(c2ccc(Nc3ncc(C(N)=O)c(NC4CC4)n3)cc2)CC1 [Cerdulatinib]	0.0981
C[N+](C)(C)CC(O)CC(=O)[O-] (racemic) [DL-Carnitine HCl]	-0.144
CC(=O)NC(CC(C)C)C(=O)O (stereo unspecified) [Acetylleucine]	0.105
C[N+](C)(C)C[C@H](O)CC(=O)[O-] [L-carnitine]	0.189
Cn1cnc(=N)c2[nH]cnc21 [3-Methyladenine]	-0.0241
O=C(/C=C/c1cccnc1)NCCCCC1CCN(C(=O)c2ccccc2)CC1	0.143
NCCc1ccc(O)c(O)c1 [Dopamine HCl]	-1.03
COP(=O)(OC)OC=C(Cl)Cl [Dichlorvos]	0.0892
CC(C)C(Br)C(=O)NC(N)=O (stereo unspecified) [Bromisoval]	0.223
Cc1c(-c2ccc(-c3ccccc3F)cc2)nc2ccc(F)cc2c1C(=O)O [Brequinar]	0.034
FC(F)(F)Oc1ccc2nc(-c3ccc(OCCOCCOc4ccc(-c5nc6ccc(OC(F)(F)F)cc6[nH]5)nc4)cn3)[nH]c2c1	1.36
C=CC(=O)N[C@H]1CCOC[C@H]1Nc1ncc2cc(-c3c(Cl)c(OC)cc(OC)c3Cl)ccc2n1	-0.293
CN(Cc1cc(Br)cc(Br)c1N)C1CCCCC1 [Bromhexine HCl]	0.0267
C[C@H](CS)C(=O)N1CCC[C@H]1C(=O)O [Captopril]	0.0195
Cn1cnc2c(F)c(Nc3ccc(Br)cc3Cl)c(C(=O)NOCCO)cc21 [Selumetinib (AZD6244)]	0.144
Nc1nc(N)c2nc(-c3cccc(O)c3)c(-c3cccc(O)c3)nc2n1	0.407
O=S(=O)(NC1CCCCC1)c1ccc2c(c1)C(=NO)c1cc(S(=O)(=O)NC3CCCCC3)ccc1-2	0.123
COc1ccc(OCc2ccc(COc3c(Cl)cccc3Cl)cc2)c(Cl)c1 [pocapavir]	-0.0716
CN1CCN(C(=O)c2cc3cc(Cl)ccc3[nH]2)CC1	0.0389
COc1c2ccoc2c(OC[C@H]2OC2(C)C)c2oc(=O)ccc12 [Byakangelicol]	0.012
COC(=O)N[C@H](C(=O)N1CC2(CC2)C[C@H]1c1nc(-c2ccc3c(c2)C(F)(F)c2cc(-c4ccc5[nH]c([C@@H]6[C@H]7CC[C@H](C7)N6C(=O)[C@@H](NC(=O)OC)C(C)C)nc5c4)ccc2-3)c[nH]1)C(C)C [Ledipasvir (GS5885)]	0.248

Compound	thermal shift ΔTm of Mpro [°C]
COc1ccc(CNc2nc(N3CCC[C@H]3CO)ncc2C(=O)NCc2ncccn2)cc1Cl [Avanafil]	0.0404
N#CC(C#N)=Cc1ccc(O)c(O)c1	0.57
O=C(O)COc1cccc(CN(Cc2ccc(-n3cccn3)cc2)S(=O)(=O)c2cccnc2)c1 [Taprenepag]	0.198
CC(=O)OCC(=O)[C@@]1(O)CC[C@H]2[C@@H]3CCC4=CC(=O)C=C[C@]4(C)[C@H]3[C@@H](O)C[C@@]21C [Prednisolone Acetate]	-0.0934
Cc1cccc(Cc2c[nH]cn2)c1C [Detomidine HCl]	0.125
CC[C@H](c1ccc(O)cc1)[C@@H](CC)c1ccc(O)cc1 [Hexestrol]	-0.211
Cc1c(Nc2ncccc2C(=O)O)cccc1C(F)(F)F [Flunixin Meglumin]	0.197
CC(ONC(=O)c1cc(C(F)(F)F)cc(C(F)(F)F)c1)C(=O)Nc1ccc(Cl)cc1 (stereo unspecified)	0.826
OC[C@@H](O)CN1CCN(c2ccccc2)CC1 [Levodropropizine]	-0.0269
N#CC1(c2ccc(NC(=O)c3cccnc3NCc3ccncc3)cc2)CCCC1 [Apatinib]	-0.224
C=C[C@H]1[C@H](O[C@@H]2O[C@H](CO)[C@@H](O)[C@H](O)[C@H]2O)OC=C(C(=O)OC)[C@H]1CCOC(=O)c1cc(O)c(O)c(O)c1 [Cornuside]	-1.14
NNC(=O)c1ccncc1 [Isoniazid]	0.0867
CC1(C)C=C(CN2C/C(=C\c3ccc(F)cc3)C(=O)/C(=C/c3ccc(F)cc3)C2)C(C)(C)N1O	-0.183
Cc1ccc(S(=O)(=O)OCC(=O)Nc2ccc(C(=O)O)c(O)c2)cc1	0.0928
C[C@H]1C[C@H]2[C@@H]3CCC4=CC(=O)C=C[C@]4(C)[C@H]3C(=O)C[C@]2(C)[C@@]1(O)C(=O)CO [Meprednisone]	-0.141
CCC(=O)OCC(=O)[C@@]1(OC(=O)CC)[C@@H](C)C[C@H]2[C@@H]3CCC4=CC(=O)C=C[C@]4(C)[C@@]3(F)[C@@H](O)C[C@@]21C [Betamethasone Dipropionate]	-0.209
O=C(Nc1ncc(SCCN2CCCC2)s1)[C@]1(c2ccc(S(=O)(=O)C3CC3)cc2)C[C@H]1C1CCCCC1	-0.266
O=C(O)CCCN1CCC(O[C@@H](c2ccc(Cl)cc2)c2ccccn2)CC1 [Bepotastine Besilate]	-0.0236
O=C(O)c1cccnc1 [Nicotinic Acid]	-0.0117
O=C(Oc1coc(CSc2ncccn2)cc1=O)c1ccc([N+](=O)[O-])cc1	-0.107
CC1=C(C(=O)O)N2C(=O)C(N)C2SC1 (stereo unspecified) [Cefalexine EP IMpurity B]	0.237
Cc1cc(=O)c(C(=O)N[C@@H](C(=O)N[C@@H]2C(=O)N3C(C(=O)O)=C(CSc4nnnn4C)CS[C@H]23)c2ccc(O)cc2)c[nH]1 [Cefpiramide acid]	0.0709
CCCCc1oc2ccccc2c1C(=O)c1cc(I)c(OCCN(CC)CC)c(I)c1 [Amiodarone HCl]	0.109
CC1(N2CCC(n3c([C@@H]4CCCNC4)nc4ccccc43)CC2)CCCCCCC1 [MCOPPB trihydrochlride]	0.249
CN1CCN(c2ccc3nc(-c4c(N)c5c(F)cccc5[nH]c4=O)[nH]c3c2)CC1 [Dovitinib (TKI-258) Dilactic Acid]	0.351
CN1CCN(c2ccc3nc(-c4c(N)c5c(F)cccc5[nH]c4=O)[nH]c3c2)CC1 [Dovitinib (TKI-258, CHIR-258)]	0.0464

Compound	thermal shift ΔTm of Mpro [°C]
CN1CCN(c2ccc3nc(-c4c(N)c5c(F)cccc5[nH]c4=O)[nH]c3c2)CC1 [Dovitinib (TKI258) Lactate]	-0.146
O=c1[nH]c(=O)n([C@H]2C[C@H](O)[C@@H](CO)O2)cc1I [Idoxuridine]	0.0622
Cc1cccc(N(C)C(=S)Oc2ccc3ccccc3c2)c1 [Tolnaftate]	-0.00675
C=CCNC1=C2C[C@@H](C)C[C@H](OC)[C@H](O)[C@@H](C)/C=C(\C)[C@H](OC(N)=O)[C@@H](OC)/C=C\C=C(/C)C(=O)NC(=CC1=O)C2=O [17-AAG (Tanespimycin)]	-0.0332
COP(=O)(OC)C(O)C(Cl)(Cl)Cl (stereo unspecified) [Chlorophos]	0.0198
CCN1CCCC1CNC(=O)c1cc(S(N)(=O)=O)ccc1OC (stereo unspecified) [Sulpiride]	0.228
COc1ccc(-c2ccc3cc(C(=O)O)ccc3c2)cc1C12CC3CC(CC(C3)C1)C2 [Adapalene]	0.264
COc1cc2c(NC3CCN(CC4CCCCC4)CC3)nc(N3CCCN(C(C)C)CC3)nc2cc1OCCCN1CCCCC1	-0.162
Nc1cc(C(F)(F)F)c(-c2nc(N3CCOCC3)nc(N3CCOCC3)n2)cn1	0.0216
CC12CC3CC(C)(C1)CC(N)(C3)C2 [Memantine HCl]	0.0502
CN1C(C(=O)Nc2ccccn2)=C(O)c2sc(Cl)cc2S1(=O)=O [Lornoxicam]	0.144
Cc1ccc(CNc2ncnc3ccc(-c4ccc(CO)o4)cc23)o1	-0.0386
C/C(=N\NC(=O)c1cccc(S(=O)(=O)N2CCN(C)CC2)c1)c1cc(Cl)ccc1O [Seclidemstat]	0.0414
O=C(c1cc(C2CC2)on1)N(C1CCCCC1)C1CCCCC1	-0.0446
COc1ccc(-c2cc(=O)c3c(OC)c(OC)c(OC)c(OC)c3o2)cc1 [Tangeretin]	-0.105
CC(C)=CCC[C@](C)(O[C@@H]1O[C@H](CO[C@@H]2OC[C@@H](O)[C@H](O)[C@H]2O)[C@@H](O)[C@H](O)[C@H]1O)[C@H]1CC[C@]2(C)[C@@H]1[C@H](O)C[C@@H]1[C@@]3(C)CC[C@H](O[C@@H]4O[C@H](CO)[C@@H](O)[C@H](O)[C@H]4O)C(C)(C)[C@@H]3CC[C@]12C [Gynostemma Extract]	-0.467
O=C(O)c1ccc(C=C2SC(=S)N(c3cccc(C(F)(F)F)c3)C2=O)cc1	0.357
CC(C)c1nc(CN(C)C(=O)N[C@@H](CCN2CCOCC2)C(=O)N[C@H](CC[C@H](Cc2ccccc2)NC(=O)OCc2cncs2)Cc2ccccc2)cs1 [Cobicistat (GS-9350)]	-0.144
CN1CCC(c2c[nH]c3ccc(NC(=O)c4ccc(F)cc4)cc23)CC1	0.0329
CC(=O)SCC(CC(=O)c1ccc(C)cc1)C(=O)O (stereo unspecified) [Esonarimod]	-0.215
Cc1cccc(-c2nn3c(c2-c2ccnc4ccc(C(N)=O)cc24)CCC3)n1	-0.0948
O=c1n(Cl)c(=O)n(Cl)c(=O)n1Cl [Trichloroisocyanuric acid]	-0.103
O=C(Nc1cccnc1)N1CCC(Cc2cccc(Oc3ccc(C(F)(F)F)cn3)c2)CC1	0.0311
NC[C@H]1OB(O)c2c(OCCCO)cccc21 [Epetraborole hydrochloride]	0.12
